{"source": "patent US20010014732A1", "about": "“Biocidal proteins” (ZENECA Limited, priority 1991, published 2001)", "assay": "Isoelectric focusing", "type": "physicochemical", "settings": "8 M urea", "note": "Some entries share one result that the patent states for a list of compounds."}
{"substance": "Rs-AFP2: antifungal protein from Raphanus sativus (radish) seeds, oligomeric, identical 5 kDa subunits, highly basic (QKLCQRPSGTWSGVCGNNNACKNQCIRLEKARHGSCNYVFPAHKCICYFPC; UniProt P30230 30-80, looked up)", "values": [{"measurement": "pI", "value": "higher than 10"}]}
